Our source for the binding values is article PMC12594171, “DKK3-LRP1 complex and a chemical inhibitor regulate Aβ clearance in models of Alzheimer’s disease” (Science Advances, 2025).

The target in this test is T1, Flag-tagged DKK4 (UniProt Q9UBT3).
T1 sequence: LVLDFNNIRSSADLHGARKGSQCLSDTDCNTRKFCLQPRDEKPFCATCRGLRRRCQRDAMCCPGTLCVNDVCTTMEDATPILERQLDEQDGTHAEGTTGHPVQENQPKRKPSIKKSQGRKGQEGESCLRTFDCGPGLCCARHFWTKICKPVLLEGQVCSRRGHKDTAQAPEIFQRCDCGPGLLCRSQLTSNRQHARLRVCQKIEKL
Kind of test: co-IP; extract of HEK293 DKK4+ cells, immunoblot for endogenous LRP1 (fig. S1D). A general note: In western blotting, separated proteins are transferred to a membrane and probed.

Results are given in words; binding and its absence hold for the method and conditions named. Binding seen in cells or lysates may run through a third protein. Binding calls can cover weak binding; strength is not graded here. Tags and fused reporters may be left off the sequences shown.

As for “low-density lipoprotein receptor-related protein 1 (LRP1), endogenous in HEK293 (human (endogenous in HEK293))”, the binding entry was “binds”.
